Laboratory results: PubChem BioAssay AID652259 (Drosophila RNAi Screening Center, 2013)
In all, the deposit lists about 22,000 reagents; this is an unselected part of those that have a named target and a result. Over the whole deposit, 233 (1.1%) got an active call. 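Light values are raw, unnormalised plate reads; the ratio scores behind the reporter calls were not deposited.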 Unmarked entries are inactive. Reagents against one gene are numbered here. A plus sign joins genes that one reagent is predicted to hit. Reagent sequences are not shown. The record does not give: the amount of reagent, the time to read-out, the dose of the treatment.

Aim: 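Knock-downs that push a Wingless-driven reporter up or down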 (primary screen)
System: Drosophila clone 8 imaginal disc epithelial cells
Reagents: long dsRNA against Drosophila genes
Challenge: pathway stimulated by co-transfected Wingless expression plasmid
Measurement: 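Dual luciferase reads per well after Wingless plasmid stimulation: reporter firefly light and Renilla control light; activity is firefly divided by Renilla, a ratio not deposited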
Reading the numbers: firefly reporter light: higher = more Wg reporter light, before normalisation; Renilla control light: higher = more transfected or surviving cells
Active means: 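Strong candidates differ from their plate mean by at least two out of four per-plate statistical tests; weak candidates meet just one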
Calls: active = candidate regulator (raises or lowers reporter); inactive = not a candidate

no.	target	reagent	reporter change call, replicate 1	firefly reporter light, replicate 1	firefly reporter light, replicate 2	Renilla control light, replicate 1	Renilla control light, replicate 2
1	CG14414 (GeneID 32394)	1		25671		10128	
2	CG12682 (GeneID 31415)	1		15899		7868	
3	plh (GeneID 40615)	1		27520		7369	
4	CG43089 (GeneID 12798588)	1		1845		1024	
5	por (GeneID 32818)	1		25831		11794	
6	CG42531 (GeneID 8673972)	1		19821		20083	
7	AttA (GeneID 36636)	1		10450		4056	
8	witty (GeneID 34145)	1		3136	8981	1365	4244
9	witty (GeneID 34145)	2		5.19e5	5.84e5	3.03e5	2.65e5
10	CG43253 (retired record) (GeneID 12797931)	1		3137		1574	
11	Claspin (GeneID 326205)	1		4880		1472	
12	nac (GeneID 40981)	1		18711		4619	
13	Mst85C (GeneID 41089)	1		12081		4224	
14	CG32036 (GeneID 39105)	1		4834		1636	
15	CG7968 (GeneID 34802)	1		2368	8233	1069	3276
16	CG31050 (GeneID 318571)	1		4012		2103	
17	chb (GeneID 43901)	1		4987		1696	
18	Gr59f (GeneID 37726)	1		1972	6393	648	2148
19	vas (retired record) (GeneID 34884)	1		6.79e5	7.09e5	2.21e5	2.29e5
20	CG13074 (GeneID 39760)	1		8425		2663	
21	CG13326 (GeneID 36439)	1		11191		3203	
22	COX2 (retired record) (GeneID 192470)	1		16109		9748	
23	Syx6 (GeneID 40373)	1		10521		3123	
24	Utx (GeneID 34377)	1		3186	5797	1298	3684
25	CG13712 (GeneID 38574)	1		1552	8432	1443	4608
26	DCTN4-p62 (GeneID 35709)	1		12265		3456	
27	CG33310 (GeneID 2768910)	1		3532	3891	1061	1914
28	Thor (GeneID 33569)	1		16384		6384	
29	CG8814 (GeneID 33492)	1		12669		5427	
30	CG14007 (GeneID 33799)	1		1572	6618	758	2512
31	CG32437 (GeneID 40366)	1		19898		6433	
32	CG32437 (GeneID 40366)	2		7.99e5	8.45e5	3.43e5	4.28e5
33	Sln (GeneID 36263)	1		8720		2283	
34	Gos28 (GeneID 248102)	1		21345		4987	
35	Gos28 (GeneID 248102)	2		6.81e5	6.73e5	2.54e5	3.00e5
36	CG33107 (GeneID 326256)	1		2.99e5	3.73e5	1.26e5	1.54e5
37	dcma (GeneID 5740672)	1		21085		8442	
38	dcma (GeneID 5740672)	2		4192	7507	1213	3393
39	Pcf11 (GeneID 36658)	1		4810		1433	
40	Smn (GeneID 39844)	1		5541		2232	
41	CG42288 (GeneID 36559)	1		6091		1764	
42	CHOp24 (GeneID 31382)	1		3478	9082	1594	1962
43	Srp9 (GeneID 38883)	1		2352	5847	1280	2000
44	wisp (GeneID 32152)	1		2796	8706	720	2433
45	Ppa (GeneID 37602)	1		5031	9458	1265	2577
46	CG3149 (GeneID 31489)	1		2201	6427	1072	2153
47	mRpS10 (GeneID 41838)	1		18012		4212	
48	CG12689 (GeneID 31676)	1		12709		7157	
49	l(2)k09022 (GeneID 33960)	1		13965		5057	
50	CG5781 (GeneID 34678)	1		1767	5623	780	2394
51	Hexo1 (GeneID 38528)	1		8858		3697	
52	Lnpk (GeneID 35842)	1		13989		3968	
53	CG42748 (GeneID 35442)	1		1706	7149	784	2098
54	CG42748 (GeneID 35442)	2		12088		4029	
55	CG42748 (GeneID 35442)	3		2160	6091	886	1957
56	CG18628 (GeneID 39205)	1		9379		4213	
57	CG11825 (GeneID 36099)	1		3816	7255	848	1544
58	Gp210 (GeneID 35512)	1		2339	7530	903	2680
59	Gp210 (GeneID 35512)	2		14230		4955	
60	ChLD3 (GeneID 35002)	1		2522	7296	964	3936

Entries above whose gene name begins with M or m (2):
target	reagent	reporter change call, replicate 1	firefly reporter light, replicate 1	firefly reporter light, replicate 2	Renilla control light, replicate 1	Renilla control light, replicate 2
Mst85C (GeneID 41089)	1		12081		4224	
mRpS10 (GeneID 41838)	1		18012		4212	

More results follow:
no.	target	reagent	reporter change call, replicate 1	firefly reporter light, replicate 1	firefly reporter light, replicate 2	Renilla control light, replicate 1	Renilla control light, replicate 2
61	CG9231 (GeneID 40130)	1		8077		2668	
62	hob (GeneID 38395)	1		6007		1856	
63	CG12935 + Nop10	1		3024	9560	860	3632
64	CG1314 (GeneID 33066)	1		2765	7872	1152	2976
65	Bub3 (GeneID 43490)	1		3673	6756	1360	2113
66	CG14194 (GeneID 32908)	1		19120		8490	
67	CG1463 (GeneID 32211)	1		2851	4764	859	1620
68	Con (GeneID 38590)	1		2374		1079	
69	so (GeneID 35662)	1		18589		5077	
70	Stt3B (GeneID 43005)	1		23617		14501	
71	CG9416 (GeneID 37223)	1		6993		2568	
72	CG6195 (GeneID 42343)	1		12651		2966	
73	Rb97D (GeneID 43231)	1	Wg reporter activity raised	7210		1526	
74	CG14840 (GeneID 41734)	1		12192		3232	
75	mdlc (GeneID 42397)	1		1904	7360	720	1943
76	Tango6 (GeneID 35155)	1		8391		2098	
77	SLC5A11 (GeneID 34117)	1		5200		2941	
78	CG13085 (GeneID 35219)	1		3116	6562	859	2291
79	otk2 (GeneID 36284)	1		5241		2265	
80	CG4017 (GeneID 34296)	1		2022	4124	476	1996
81	FoxK (GeneID 39252)	1		10648		2037	
82	CG43316 (GeneID 36326)	1		5880		2409	
83	mei-P26 (GeneID 45775)	1	Wg reporter activity raised (active)	5100	8405	131	369
84	dpr11 (GeneID 40800)	1		10841		2225	
85	dpr11 (GeneID 40800)	2		18946		2626	
86	dpr11 (GeneID 40800)	3		12626		3968	
87	Mov10 (GeneID 36922)	1		13446		4036	
88	Cals (GeneID 43824)	1		3689	11608	1521	3540
89	Cals (GeneID 43824)	2		3.08e5	3.61e5	1.46e5	1.69e5
90	CR33319 (GeneID 3772025)	1		23964		13905	
91	drpr (GeneID 38218)	1		4357		3159	
92	drpr (GeneID 38218)	2		5610		3184	
93	CG34309 (GeneID 5740636)	1		14824		2544	
